PubChem BioAssay AID1688 (National Center for Advancing Translational Sciences (NCATS), 2009)
Among all 220,000 compounds or so, about 2,400 (1.1%) were called active. The inconclusive results got no clear call from the source; some entries with a clear call stand among them for comparison. The call rests on the fitted dose curve; in most records, active means well fitted inhibition curve with a large enough effect; inconclusive means small, poorly fitted or top-dose-only effect, or effect the other way; inactive means no such curve, though single readings can be large or run the other way. Potencies of inconclusive entries are doubtful fits and often do not repeat.

Experiment: qHTS Multiplex Assay to Identify Dual Action Probes in a Cell Model of Huntington: Aggregate Formation (GFP); further: nearly all actives have a fitted effect of over 60% in size
Settings: PC12 HttQ103-GFP aggregates, Acumen cytometry, 40 h; activity change, negative = inhibition: at 46.1 µM (top of the series) unless noted
How it was run: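 Read-out: GFP aggregate count by laser scanning cytometer (488 nm excitation, 500-530 nm emission, 1–25 µm objects >6 SD above background). Cells: PC12, inducible HTTex1-Q103-GFP, 100 nM tebufenozide; compounds titrated.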
On the % scale 0 is the no-effect control and ±100 the full control effect; potency means the concentration at half of the fitted maximal effect.

| Structure (SMILES) | Potency | activity change, negative = inhibition |
| --- | --- | --- |
| CC1Cc2ccccc2N1C(=O)c1cc2c(=O)n3ccccc3nc2n1C (stereo unspecified) | inconclusive: 10 µM [inhibitor, partial curve, poor fit] | – |
| N#Cc1c(NC(=O)c2ccncc2)sc2c1CCC2 | – | inactive: 14.1% |
| CCNc1nc(-c2ccc(OC(F)F)cc2)c(C)s1 | – | inactive: -9.69% |
| CC(OC(=O)C1CC(O)CN1S(=O)(=O)c1ccccc1[N+](=O)[O-])C(=O)N1CCCCC1 (stereo unspecified) | – | inactive: -4.41% |
| CN(C)CCN(C(=O)/C=C/c1cccs1)c1nc2c(F)cc(F)cc2s1 | inconclusive: 35.5 µM [activator, single point] | – |
| O=C(NC1CCCc2ccccc21)C1CCN(S(=O)(=O)c2cccc3nonc23)CC1 (stereo unspecified) | – | inactive: 13.2% [at 9.22 µM] |
| O=C(Nc1ccc(C(=O)O)cc1)Nc1ccc(F)cc1F | – | inactive: 6.34% |
| Cc1ccc(S(=O)(=O)N(C)C)cc1NC(=S)N1CCN(Cc2ccc3c(c2)OCO3)CC1 | inconclusive: 12.6 µM [inhibitor, partial curve] | – |
| COc1ccccc1C(=O)N1CCN(Cc2ccc3c(c2)OCO3)CC1 | active: 2.82 µM | – |
| Cc1cccc(Nc2nc(-c3ccccc3)c(C(=O)Nc3cccnc3)s2)c1 | active: 6.31 µM | – |
| Cc1ccccc1Oc1cc(NC(=O)Cn2cnc([N+](=O)[O-])c2)cc([N+](=O)[O-])c1 | inconclusive: 31.6 µM [inhibitor, single point] | – |
| CCCCn1c(NCc2cccs2)nc2ccccc21 | inconclusive: 3.55 µM [activator, partial curve] | – |
| O=C(Nc1nc(-c2cc(Cl)sc2Cl)cs1)c1ccccc1 | inconclusive: 0.112 µM [inhibitor, full curve, poor fit] | – |
| COc1ccc(NC(=O)c2cn(CCC#N)nc2-c2cccs2)cc1 | – | inactive: 15.4% |
| CCC1(C)Cc2c(sc3nc(SC)n(Cc4ccccc4)c(=O)c23)CO1 (stereo unspecified) | inconclusive: 22.4 µM [inhibitor, single point] | – |
| O=c1c(O)c(-c2cccs2)oc2ccc(Cl)cc12 | active: 14.1 µM | – |
| CC(=O)N1CCN(c2ccc(Oc3ncnc4sccc34)cc2)CC1 | active: 17.8 µM | – |
| CCCCCCOC(=O)C[N+](C)(C)CCOC1CC2CCC1(C)C2(C)C (stereo unspecified) | active: 6.31 µM | – |
| N#C/C(=C\c1cccs1)C(=O)c1ccccc1 | – | inactive: 1.81% [at 9.22 µM] |
| Cc1sc2nc(CN3CCOCC3)nc(N3CCOCC3)c2c1C | inconclusive: 35.5 µM [activator, single point] | – |
| CCOC(=O)N1CCN(c2ccc(S(=O)(=O)N(Cc3ccccc3)Cc3ccccc3)cn2)CC1 | inconclusive: 4.47 µM [inhibitor, partial curve] | – |
| O=S(=O)(CC(O)COc1ccc(Br)cc1)c1ccccc1 (stereo unspecified) | – | inactive: 19.8% [at 9.22 µM] |
| COc1cccc(NC(=O)C(=O)N2CCOCC2)c1 | inconclusive: 2.82 µM [inhibitor, partial curve] | – |
| Nc1c(C(=O)NCC2CCCO2)c2nc3ccccc3nc2n1-c1ccccc1 (stereo unspecified) | inconclusive: 12.6 µM [inhibitor, partial curve] | – |

Of the compounds above, these have fluorine.

| Structure (SMILES) | Potency | activity change, negative = inhibition |
| --- | --- | --- |
| CCNc1nc(-c2ccc(OC(F)F)cc2)c(C)s1 | – | inactive: -9.69% |
| CN(C)CCN(C(=O)/C=C/c1cccs1)c1nc2c(F)cc(F)cc2s1 | inconclusive: 35.5 µM [activator, single point] | – |
| O=C(Nc1ccc(C(=O)O)cc1)Nc1ccc(F)cc1F | – | inactive: 6.34% |

Additional records

| Structure (SMILES) | Potency | activity change, negative = inhibition |
| --- | --- | --- |
| CCc1ccc(NC(=O)c2ccc3c(c2)C(=O)N(CCOC)C3Nc2ccc(CC)cc2)cc1 (stereo unspecified) | inconclusive: 0.355 µM [activator, partial curve, poor fit] | – |
| FC(F)(F)c1cccc(NC(=S)NNC(=S)NCc2ccccc2)c1 | inconclusive: 25.1 µM [inhibitor, single point] | – |
| Cn1c(=O)n(C)c2cc(/C=N/NC(=O)c3cc4cc(Br)ccc4o3)ccc21 | – | inactive: 22.3% [at 9.22 µM] |
| CCOc1cc(Br)c(Br)c(C=Nc2ccc(NC(C)=O)cc2)c1O | inconclusive: 20 µM [inhibitor, single point] | – |
| Cc1ccc2oc(C(=O)NCc3ccc4c(c3)OCO4)c(C)c2c1 | inconclusive: 35.5 µM [inhibitor, single point] | – |
| COc1ccc(/C=N/NC(=O)c2ccoc2C)cc1O | inconclusive: 35.5 µM [inhibitor, single point] | – |
| CCOC(=O)c1c(NC(=O)CSc2nnnn2-c2ccccc2)sc2c1CCC(C)C2 (stereo unspecified) | inconclusive: 35.5 µM [inhibitor, single point] | – |
| Cc1nn(Cc2ccc(Cl)c(Cl)c2)c(C)c1NC(=O)c1sc2ccccc2c1Cl | inconclusive: 11.2 µM [inhibitor, single point] | – |
| Cc1nc2ccc(NC(=O)c3ccc(S(=O)(=O)N(C)c4ccccc4)cc3)cc2s1 | inconclusive: 35.5 µM [inhibitor, single point] | – |
| COc1cc(C(=O)ON=C2C=C(C)C(=O)C(C)=C2)cc(OC)c1OC | inconclusive: 35.5 µM [inhibitor, single point] | – |
| CCc1ccc(NC(=O)CC2C(=O)Nc3c2c(=O)n(C)c(=O)n3C)cc1 (stereo unspecified) | – | inactive: -16.1% |
| COC(=O)c1ccsc1NC(=O)CN1CCN(c2ccc(F)cc2)CC1 | inconclusive: 1.26 µM [inhibitor, single point] | – |
| CC(C(=O)N1CCN(c2ccc(Cl)cc2)CC1)c1ncc(C(F)(F)F)cc1Cl (stereo unspecified) | inconclusive: 15.8 µM [inhibitor, single point] | – |
| CCN(CC)C(=O)c1ccc(S(=O)(=O)N2CCC(c3nc4ccccc4s3)CC2)cc1 | inconclusive: 7.94 µM [inhibitor, partial curve] | – |
| S=C1NC2=C(CCCC2)C2(CCCCC2)N1 | inconclusive: 1.26 µM [activator, single point] | – |
| O=C(NCc1nc(-c2ccccc2)no1)c1ccc2c(c1)OCO2 | – | inactive: -5.97% |
| O=C(NCc1ccccc1)C1CC(=O)N(C2CCCCCC2)C1 (stereo unspecified) | inconclusive: 5.62 µM [inhibitor, single point] | – |
| NNC(=O)c1cc(O)c(O)c(O)c1 | inconclusive: 22.4 µM [activator, single point] | – |
| O=C(NC1CCCCC1)C(c1ccc2ncccc2c1)N(Cc1ccc2c(c1)OCO2)C(=O)c1ccc2c(c1)OCCO2 (stereo unspecified) | – | inactive: 9.2% |
| Nc1c(C(=O)NCCN2CCOCC2)c2nc3ccccc3nc2n1-c1ccccc1 | inconclusive: 17.8 µM [inhibitor, single point] | – |
| C=C(C)COc1ccc(-c2nc(N)ncc2-c2ccc(OC)cc2)c(O)c1 | inconclusive: 6.31 µM [inhibitor, full curve] | – |
| CC1=C(C#N)C(NC(=O)c2ccc(C)cc2)(C(F)(F)F)C(=O)N1 (stereo unspecified) | – | inactive: -1.06% |
| Cc1cc(C(=O)O)cc(S(=O)(=O)N2CCOCC2)c1C | – | inactive: 3.37% |
| O=C(N/N=C(\c1ccccc1)c1ccccn1)c1cccc([N+](=O)[O-])c1 | active: 6.31 µM | – |

| Structure (SMILES) | Potency | activity change, negative = inhibition |
| --- | --- | --- |
| CCN1CCN(C(=O)Nc2cccc(C(F)(F)F)c2)CC1 | – | inactive: 3.58% |
| CCc1cc(C(=O)c2ccc(OC)cc2)c(N)s1 | active: 0.112 µM | – |
| Cc1cccc(NC(=S)NCc2ccc3[nH]c4c(c3c2)CCCC4)c1 | inconclusive: 28.2 µM [inhibitor, single point] | – |
| COc1ccc(C(N)=S)c(OC)c1 | – | inactive: 3.45% |
| Cc1nc(Nc2ccccc2)[nH]c(=O)c1CCC(C)C | inconclusive: 12.6 µM [inhibitor, partial curve] | – |
| CCN(CC)c1ccc(/C=C2/C(=O)ON=C2C)cc1 | – | inactive: -1.12% |
| COc1ccccc1N1CCN(C(=O)c2ccc3[nH]c4c(c3c2)CC(C)CC4)CC1 (stereo unspecified) | inconclusive: 35.5 µM [inhibitor, single point] | – |
| CN(Cc1ccccc1)S(=O)(=O)c1ccc(C(=O)Nc2nnc(C3CC3)o2)cc1 | inconclusive: 11.2 µM [inhibitor, partial curve] | – |
| COc1ccc(NS(=O)(=O)c2cccc(NC(=O)NC3CCCCC3)c2)cc1 | inconclusive: 7.94 µM [inhibitor, partial curve, poor fit] | – |
| Cc1cc(-n2ccc(=O)[nH]c2=O)nc(-c2ccccc2)n1 | – | inactive: -4.23% |
| O=C(c1ccccc1)c1nn(-c2ccc(Cl)cc2)c(=O)cc1C(F)(F)F | inconclusive: 35.5 µM [inhibitor, single point] | – |
| O=C(NNC(=S)Nc1ccc(Cl)cc1)c1ccccc1OC(F)F | active: 12.6 µM | – |
| CC(C)c1nc(Cl)c(C#N)c2c1CCCC2 | inconclusive: 11.2 µM [inhibitor, partial curve] | – |
| CCN(CC)c1nc(N)c2c(N)nc3c(c2c1C#N)CC(c1ccccc1)O3 (stereo unspecified) | inconclusive: 35.5 µM [inhibitor, single point] | – |
| COc1cc2c(c(OC)c1OC)-c1c(cc3c(c1OC)OCO3)C1OC2[C@@H](C)[C@H]1C (stereo partly specified) | inconclusive: 1.26 µM [inhibitor, single point] | – |
| Cc1cc(C)n(-c2nc(NCC(C)O)c3c4c(sc3n2)CCCC4)n1 (stereo unspecified) | inconclusive: 35.5 µM [inhibitor, single point] | – |
| CCOc1ccccc1NC(=S)N(CCCN1CCOCC1)Cc1cn(C)c2ccccc12 | inconclusive: 35.5 µM [inhibitor, single point] | – |
| Oc1ccccc1C1CC(c2cccs2)=NC(c2cccc(Br)c2)N1 (stereo unspecified) | active: 11.2 µM | – |
| O=S(=O)(Cc1cc(Cl)nc(-c2ccccc2)n1)c1ccccc1 | – | inactive: 13.3% |
| Nc1c(C(=O)c2ccccc2)sc2nsc(SCCN3CCCC3)c12 | – | inactive: 20.1% [at 9.22 µM] |
| O=C(O)CCS(=O)(=O)c1nc(-c2cccs2)cc(C(F)(F)F)n1 | inconclusive: 10 µM [activator, partial curve, poor fit] | – |
| COc1ccc(CCN(Cc2cc3cc(C)ccc3[nH]c2=O)C(=O)N2CCCC2)cc1OC | inconclusive: 0.562 µM [activator, partial curve, poor fit] | – |
| Cc1nnc(NC(=O)Nc2cccc(Cl)c2)s1 | inconclusive: 10 µM [inhibitor, single point] | – |
